The target in assay [1] is T1, Rrm3p-Myc (S. cerevisiae) (UniProt P38766).
T1 sequence: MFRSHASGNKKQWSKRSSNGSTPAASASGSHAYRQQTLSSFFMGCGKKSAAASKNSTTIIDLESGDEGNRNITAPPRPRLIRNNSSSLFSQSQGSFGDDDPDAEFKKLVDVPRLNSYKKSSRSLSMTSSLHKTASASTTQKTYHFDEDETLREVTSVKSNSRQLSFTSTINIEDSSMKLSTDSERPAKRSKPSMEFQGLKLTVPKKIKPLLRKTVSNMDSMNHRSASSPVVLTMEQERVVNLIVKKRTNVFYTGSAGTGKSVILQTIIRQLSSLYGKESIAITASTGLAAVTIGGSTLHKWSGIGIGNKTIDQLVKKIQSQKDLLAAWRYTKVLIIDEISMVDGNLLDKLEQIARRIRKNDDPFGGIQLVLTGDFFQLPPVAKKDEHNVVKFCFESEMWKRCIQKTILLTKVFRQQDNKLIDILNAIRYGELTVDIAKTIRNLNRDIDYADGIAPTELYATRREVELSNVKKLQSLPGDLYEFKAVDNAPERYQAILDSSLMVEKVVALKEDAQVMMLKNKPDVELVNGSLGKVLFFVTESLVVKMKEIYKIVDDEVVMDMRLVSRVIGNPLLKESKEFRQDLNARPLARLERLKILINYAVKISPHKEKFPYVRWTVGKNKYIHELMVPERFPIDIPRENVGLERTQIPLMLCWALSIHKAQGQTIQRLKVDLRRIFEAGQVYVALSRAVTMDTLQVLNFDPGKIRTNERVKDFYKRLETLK
Nature of the assay: co-IP; Cac1p-FLAG and Rrm3p-Myc from low copy plasmids in the POL30-0 and mutant pol30 strains; α-FLAG or α-Myc precipitation from lysate in IP buffer (150 mM NaCl, 50 mM Tris pH 7.5, 2 mM EDTA), washes with 0.2% Triton X100 + 0.01% SDS, elution with FLAG or Myc peptide, blot with α-PCNA.

Sequences of proteins named here, by UniProt entry; tags and fusion partners are left off. A change or cut given only in a name is not applied to a line headed by its entry.
UniProt Q12495: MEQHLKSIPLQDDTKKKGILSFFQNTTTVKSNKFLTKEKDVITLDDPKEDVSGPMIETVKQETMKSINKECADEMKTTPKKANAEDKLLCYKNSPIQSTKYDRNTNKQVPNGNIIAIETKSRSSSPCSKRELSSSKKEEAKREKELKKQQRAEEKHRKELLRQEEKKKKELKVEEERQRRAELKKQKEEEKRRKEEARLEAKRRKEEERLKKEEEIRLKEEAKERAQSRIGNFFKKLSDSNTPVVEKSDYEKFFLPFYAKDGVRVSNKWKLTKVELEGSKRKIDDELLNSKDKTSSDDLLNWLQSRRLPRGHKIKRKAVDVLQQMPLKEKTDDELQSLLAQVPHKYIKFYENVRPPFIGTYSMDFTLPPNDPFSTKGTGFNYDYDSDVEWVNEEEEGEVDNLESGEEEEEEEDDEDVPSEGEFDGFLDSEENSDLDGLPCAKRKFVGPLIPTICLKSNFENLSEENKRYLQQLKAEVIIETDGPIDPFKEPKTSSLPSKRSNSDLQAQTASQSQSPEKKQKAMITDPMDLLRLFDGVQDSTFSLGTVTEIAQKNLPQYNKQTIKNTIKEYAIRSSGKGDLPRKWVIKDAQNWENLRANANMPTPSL
UniProt P15873: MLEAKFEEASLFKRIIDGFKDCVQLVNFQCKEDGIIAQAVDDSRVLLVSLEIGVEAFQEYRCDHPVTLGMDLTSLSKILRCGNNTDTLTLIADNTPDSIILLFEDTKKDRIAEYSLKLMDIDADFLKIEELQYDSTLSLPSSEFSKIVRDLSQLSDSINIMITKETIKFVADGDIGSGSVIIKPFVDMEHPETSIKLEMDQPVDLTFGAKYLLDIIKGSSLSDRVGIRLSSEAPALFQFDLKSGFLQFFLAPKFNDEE

The target in assay [2] is Cac1p-FLAG (S. cerevisiae) (UniProt Q12495). The description is as above.
Assay [3] concerns the target T2, Rrm3p, two-hybrid bait (S. cerevisiae) (UniProt P38766).
T2 sequence: T1 sequence
Nature of the assay: two-hybrid; Cac1p and Rrm3p as baits, wild type and mutant Pol30p (Gal4AD) as prey; 4 h in 2% galactose/1% raffinose at 30 °C; β-galactosidase (ONPG) in cell extracts as U/mg of protein, plotted as a factor of the wild-type interaction.

The target in assay [4] is Cac1p, two-hybrid bait (S. cerevisiae) (UniProt Q12495). The description is as above.

No constants are given. Whether binding was seen depends on the method and setting. For part of these data: In cells and extracts the contact can be indirect. Some results given as binding are weak or reduced against the parent protein; the word gives no strength. For part of these data: Sequences can lack the tags named with a protein.

On to “Pol30p (PCNA), wild type, of the POL30-0 strain (from UniProt P15873 1-258)”, for which the binding result in assay [1] and in assay [2] was “binds” in each case. With “Pol30p (PCNA), wild type, two-hybrid prey (pBL240-PCNA-Gal4AD) (from UniProt P15873 1-258)”, the binding result in assay [3] and in assay [4] was “binds” in each case. In the case of “pol30-6 mutant Pol30p, two-hybrid prey (from UniProt P15873 1-258)”, the binding entry in assay [3] is recorded as “binds”.

As to “pol30-8 mutant Pol30p, two-hybrid prey (from UniProt P15873 1-258)”, the binding result in assay [3] is on record as “binds weakly”.

As for “pol30-79 mutant Pol30p of the pol30-79 strain (from UniProt P15873 1-258)”, the figures for the binding entry in assay [1] and in assay [2] were “binds” and “binds weakly”, respectively. With “pol30-79 mutant Pol30p, two-hybrid prey (from UniProt P15873 1-258)”, the binding result in assay [3] is “binds”.
